According to PubChem BioAssay AID1508600 (Functional Genomics Laboratory (NCATS/FGL), 2020):
The whole screen tested about 53,000 sequences, of which about 3,700 (7%) were called active.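 How the source made its calls: active means gene knockdowns whose robust z-score for IL-1 alpha signal is at least 2 or at most -2, so actives lie on both sides; inactive means the rest.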 This is one part of the list.

Test: Components of the Cytosolic LPS Sensing Pathway: Gene Identification via Genome-wide siRNA Screen;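 further: robust z of the log signal after scaling to non-targeting control siRNA wells of the plate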
Details: RAW264.7 macrophages, IL-1a HTRF, actives lie on both sides, screened at 100 nM (by protocol), cells primed 5 h with Pam3CSK4 first
Procedure, shortened: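 IL-1a HTRF of supernatants after 24 hour LipidA transfection of Pam3CSK4-primed (5 hours) RAW264.7 cells, 48h post-siRNA transfection (100 nM). Scores: percent of plate negative-control median, then log-based robust z-score.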

Row | Sequence | z-score
1 | GGUAAGCUAGGUUGCCCACTT against Gabarapl1 | inactive: 1.91
2 | CGGGACACUUGAAUUGGCUTT against Frmd4a | active: -2.25
3 | GCUGCUUAAGUACAUCAGATT against Grm4 | inactive: -0.401
4 | GGCUAUUGUGGAGAAGAUCTT against Cblif | active: -2.07
5 | CCGCCAACACCUUUGUUUUTT against Cyp1b1 | inactive: 1.31
6 | GGCAAAGAUGAUGGAAAAATT against Srp68 | inactive: 0.307
7 | GACGGUGGGACUCACUGUUTT against Olfr544 | inactive: -1.28
8 | GCACCCAACCCAAAAACACTT against 5730596B20Rik | inactive: -1.08
9 | GGAGAGAGUCAGAAAGAAGTT against Fbxo28 | inactive: -0.411
10 | GCCGCUGUCCUACAAGUUATT against Lmo1 | inactive: -1.49
11 | GUUGCUAAUAUCCUGUCUGTT against Olfr115 | inactive: 0.492
12 | GCUUAUGAGAUGAGUGAAUTT against Ccdc43 | inactive: -0.209
13 | GGUUCAUCGUUUUUAAUAGTT against Emb | inactive: -0.868
14 | GGCAAUCACGUGACAUUUCTT against Stk31 | inactive: 0.512
15 | GGUGUCAUGAUGAACACAGTT against Slc22a12 | inactive: 0.311
16 | GGCUCUUGAAAAAAACCCATT against Utp11 | inactive: 0.441
17 | CUCCUCAGUCAACAAGAACTT against Hoxc11 | inactive: 0.176
18 | GGUUAAACUUGGUGAAUUATT against Kcnj16 | inactive: 0.901
19 | GGCAACAGCCAUCUAAACGTT against Cdkn2d | inactive: 0.439
20 | CGUUCUACCAAUCAUUAAUTT against Mrpl49 | inactive: -0.73
21 | CGAGGUACAUCCCAAGCAATT against Twf2 | inactive: 0.532
22 | GGUCUCAAUCAGAGUUACATT against Zfp324 | inactive: -0.936
23 | CGCUGCUGUAUAAGCCCAUTT against Prkab2 | inactive: -0.463
24 | GUGUUCUAUGGAUCCUCUCTT against Fpr-rs4 | inactive: 1.05
25 | CGUAGCCGAGAAGACCCUATT against Shh | inactive: 0.0734
26 | GGUGGUGCAUCCUAAGAAATT against Gp1bb | inactive: 0.28
27 | GGUAAACGGCUUUUCUUAUTT against Ube2q2 | inactive: 0.618
28 | GGCAAUAAUCUUAGAGGUUTT against 9530068E07Rik | inactive: 0.499
29 | GGAGUUUGCCAGUCAGAUCTT against Ralgps1 | active: -2.11

Reformatted field by field: part of the list above.
CGCUGCUGUAUAAGCCCAUTT against Prkab2
  z-score: inactive: -0.463
GGUAAACGGCUUUUCUUAUTT against Ube2q2
  z-score: inactive: 0.618
